Test results: the supplement of paper PMC4683952
The list shows a part of the results. Rule as the data show it: active = 2 or more and inactive = the rest. Single values are uncertain here, since repeats match poorly.

These compounds were tested on Lgr5 (MarsCy1-Lgr5-EGFP, U2OS) (assay: cell-surface Lgr5 expression (SCi1 fluorescence, background-subtracted) relative to WT DMSO (fold of DMSO control); higher = more Lgr5 at the plasma membrane). Conditions: U2OS MarsCy1-Lgr5-EGFP stable; treatment time: overnight; library: ActiProbe-5K (TimTec); 25 µM.

cell-surface Lgr5 expression, inactive:
Cc1cc(/C=C(/C#N)C(N)=S)c(C)s1 1.13, Fc1ccc(-c2nc(-c3ccc4c(c3)OCO4)no2)cc1 0.919, CCn1c(Cn2cnc([N+](=O)[O-])n2)nnc1SC 1.14, O=C(CSc1nc2[nH]c(=O)cc(O)c2s1)C12CC3CC(CC(C3)C1)C2 1.19, CCOC(=O)c1cc(CNC2CCS(=O)(=O)C2)on1 (stereo not drawn) 1.16, S=C1NC(c2ccc(Br)cc2)=CC(c2ccccc2Cl)N1 (stereo not drawn) 0.977, CC(C)(C)c1cc(Br)cc(SSc2cc(Br)cc(C(C)(C)C)c2O)c1O 0.523, COc1cccc(OC(F)(F)F)c1 0.813, CCSc1nnc(C)c2ccccc12 1.23, c1cc(-c2nnc(CC34CC5CC(CC(C5)C3)C4)o2)ccn1 1.28, CC(=O)Nc1nonc1NC(=O)CSC1=NCCS1 1.1, O=C(NCCCn1ccnc1)c1nc(-c2ccc(Br)o2)no1 0.964, CC1CCC(C(C)C)C(OC(=O)CSc2n[nH]c(=O)[nH]c2=O)C1 (stereo not drawn) 1.31, Sc1nnc(-c2ccccn2)n1/N=C/c1cccnc1 1.19, CCCCCC1(C)NC(=S)N(c2ccc(Cl)cc2)N1 (stereo not drawn) 0.959, CN1CCN(c2ccc(Nc3cn[nH]c(=O)n3)cc2)CC1 1.14, O=S1(=O)N=C(N2CCCc3ccccc32)c2ccccc21 1.27, CC(C)(C)C1CCc2c(sc3nn[nH]c(=O)c23)C1 (stereo not drawn) 1.16, Oc1ccc(/C=N/Nc2nnn[nH]2)cc1O 1.26, COc1ccc(S(=O)(=O)N2CCCC2)c(Cl)c1Cl 1.56, O=C1NC(=O)C2(COC(c3ccccc3)OC2)S1 (stereo not drawn) 1.32, Cc1ccc(S(=O)(=O)O/N=C/c2ccc(Br)cc2)cc1 1.2, C1=Nc2cccc3cccc(c23)N1 0.796, Brc1ccc(NCn2cnc3ccccc32)cc1 1.09, C=CCOc1cc(=O)oc2ccccc12 1.25, Cc1c(Cn2cc(N)cn2)cnn1C 1.1, Cc1sc2nc3n(c(=O)c2c1C)CCC3 1, Cc1cc(Sc2cc(C)c(O)c(C(C)(C)C)c2)cc(C(C)(C)C)c1O 0.716, CC(=O)C1=C(O)C=C(c2ccco2)CC1c1ccco1 (stereo not drawn) 1.3, NC(=S)NNC(=S)Nc1ccc(F)cc1 1.15, Cc1cc(C(=O)O)c(S(C)(=O)=O)s1.O 1.09, O=C(O)CN1CC2([N+](=O)[O-])C=CCC([N+](=O)[O-])(C1)C2 (stereo not drawn) 1.03, Cc1cc(-c2nnc(-c3cccs3)o2)n(C)n1 1.04, O=c1cc2oc3cc(O)c(-c4ccc(O)cc4O)cc3nc-2cc1-c1ccc(O)cc1O 1.3, O=[N+]([O-])/C=C\c1c2ccccc2cc2ccccc12 0.21, O=C1CCNc2c(Br)cc(Br)cc2N1 0.975, O=c1c(O)c(-c2ccc(O)c(O)c2)oc2ccc(O)cc12 0.664, Nc1cnc2ccccc2c1 0.883, c1ccc(-n2ncc(-c3nnn[nH]3)n2)cc1 1.03, N/N=C1\c2ccccc2-c2nc3ccccc3nc21 1.15, Nc1cnn(COc2ccc(F)cc2Cl)c1 1.06, CC(=C/c1ccco1)/C=N/NC(=O)c1cnccn1 0.491, Cn1ncc(Cl)c1C(=O)NCCCn1cc(Cl)cn1 1.28, Cc1occc1-c1nc(-c2cccs2)no1 1.02, CCCCC1CN2CCc3c([nH]c4ccccc34)C2(C)C1 (stereo not drawn) 1.1, CN1C(=O)C2C(N=CN2CCCO)N(C)C1=O (stereo not drawn) 1.1, O=S(=O)(O)C(O)c1ccccn1 (stereo not drawn) 1.14, Sc1nc2cc(Cl)ccc2[nH]1 1.01, Clc1ccc(-c2nnc(/C=C\c3cccc4ccccc34)o2)c(Cl)c1 1.06, CC1C/C(=C/c2ccco2)C(C)N(C)C1 (stereo not drawn) 1.04, O=C1c2ccccc2-c2nc3ccccc3cc21 1.58, Cc1n[n+]2c(C(=O)O)c(C)[n-]n2c1[N+](=O)[O-] 1.15, Cn1nnnc1SCc1csc(/C=C(/C#N)C(N)=S)c1 1.12, O=C/C(=C\O)c1ccc2ccccc2n1 1.08, N#Cc1c(N)sc2c1CCCCC2 1.22, Cc1n[nH]c(C)c1C(C)N.Cl (stereo not drawn) 1.25, c1ccc(C(Sc2nc3ccccc3o2)c2ccccc2)cc1 0.92, Nc1cc2c(cc1N)OCCO2 1.83, S=c1n(C2c3ccccc3Oc3ccccc32)nc(-c2ccccc2)n1-c1ccccc1 1.18, CN(C)/C=N/CCn1cnc2c1c(=O)n(C)c(=O)n2C 1.01, CC1CCc2c(sc3nc[nH]c(=O)c23)C1 (stereo not drawn) 0.946, CCCc1sc(-n2c(C)ccc2C)c(C#N)c1C 1.28, Cc1nnc2nnc3c4ccccc4ccc3n12 1.54, Cc1cc(C)n(-c2ccc3n[nH]c(=O)n3n2)n1 1.48, O/N=C(/c1ccc(Cl)cc1)c1ccco1 0.864, CN1CCN(c2nc3c(=O)[nH]c(N)nc3n2C2OC(CO)C(O)C2O)CC1 (stereo not drawn) 1.09, COC(=O)C1CN(C)CCC1=O.Cl (stereo not drawn) 1.13, COc1ccc(O)c(-c2c[nH]c(=S)nc2-c2cc(OC)ccc2OC)c1 1.39, NS(=O)(=O)c1ccc2oc(CCl)nc2c1 1.1, COCCN1C(=O)/C(=C/c2cccs2)SC1=S 1.23, O=S(=O)(c1cc(Cl)ccc1Cl)N1CCc2ccccc2C1 1.26, N#CCc1nc2ccccc2s1 1.02, Oc1c(Br)cc(Br)cc1/C=N/n1cnnc1 0.76, COc1cc(NS(=O)(=O)c2ccc(N)cc2)nc(OC)n1 1.33, C1CCN(Cc2nnn[nH]2)CC1 1.12, C(=N/N1CCN(c2ccccn2)CC1)/c1cccc2ccccc12 0.848, COc1ccc(OC)c(NS(=O)(=O)c2ccc(OC)c3ncccc23)c1 1.13, O=C1C(=C2C/C(=N/O)c3ccccc32)C(=O)c2ccccc21 1.13, Cc1nc(O)nc(O)c1NS(=O)(=O)c1cccs1 0.899, N#Cc1c(C(F)(F)F)cc(-c2cccs2)[nH]c1=S 1.28, Cn1c(CSc2nncc3ccccc23)nc2ccccc21 1.34, COc1ccccc1NS(=O)(=O)c1cccc2nsnc12 1.22, O=C(O)c1ncnc2[nH]cnc12 1.2, O=C(O)/C=C/C(=O)C(=O)N1CCCC(C(F)(F)F)C1 (stereo not drawn) 1.16, N=c1[nH]c(=S)ss1 1.76, Nc1cc(F)c(C(F)(F)F)c(F)c1 1.15, O=C(CSC1=NC2CCCCC2N1)N1CCOCC1 (stereo not drawn) 1.19, O=[N+]([O-])c1cc(-n2cnnn2)ccc1N1CCOCC1 1.14, CC(CNC(=O)C1CC1)OC12CC3CC(CC(C3)C1)C2 (stereo not drawn) 1.02, CC(C)CCOC(=O)CCSc1n[nH]c(=O)[nH]c1=O 1.43, N#Cc1sc2sc(C#N)c(N)c2c1N 1.2, CCN1CN(C2CCCCC2)CNC1=S 1.16, CN(C)S(=O)(=O)N1CCCCC1 0.885, c1cc(CCc2ccncc2)ccn1 1.13, Cc1ncnc2c1c(C)nn2C 1.14, O=C1NC(=S)S/C1=C1\C(=O)Nc2ccccc21 0.996, COc1ccc(Oc2ccc(Cl)c(Cl)c2)c(N)c1 0.839, O=C1CN(c2ccccc2)/C(=N\c2ccccc2)S1 1.25, Fc1ccc2c(c1)[C@@H]1C=CC[C@@H]1[C@H](c1ccccc1Cl)N2 1.07, O=C1Nc2ccc([N+](=O)[O-])cc2/C1=C1/S/C(=N\c2ccccc2)N(c2ccccc2)C1=O 1.18, O=c1[nH]c2cc(S(=O)(=O)NCCCn3ccnc3)ccc2s1 1.06, O=[N+]([O-])c1ccc2c(c1)OCCOCCOc1cc([N+](=O)[O-])ccc1S(=O)(=O)NCCOCCOCCNS2(=O)=O 1.4, S=C1NCN(CN2CCN(CN3CNC(=S)NC3)CC2)CN1 1.75, CCn1ncc(Cn2nc(C)c(N)c2C)c1C 1.48, Cc1cccc2c1N(C)/C(=C/c1cccc[n+]1C)C=C2 1.07, CSc1ccc(/C=N\c2ccc3cc4ccc(/N=C\c5ccc(SC)cc5)cc4nc3c2)cc1 1.7, O=C1[C@@H]2OC[C@@H](O2)[C@@H]2[C@@H]1[C@H]1c3ccccc3C=CN1[C@H]2C(=O)C12CC3CC(CC(C3)C1)C2 1.24, CC(C)CC(NC(=O)C1CCCC1)C(N)=O (stereo not drawn) 1.11
